Reference: PubChem BioAssay AID504467 (National Center for Advancing Translational Sciences (NCATS), 2011)
Among all 330,000 compounds or so, about 7,700 (2.3%) were called active. The inconclusive results got no clear call from the source; some entries with a clear call stand among them for comparison. Calls follow the shape of the dose curve; as a rule, active = well fitted inhibition curve with a large enough effect; inconclusive = small, poorly fitted or top-dose-only effect, or effect the other way; inactive = flat fitted curve, though single readings scatter. Potencies of inconclusive entries are doubtful fits and often do not repeat.

Experiment: qHTS screen for small molecules that inhibit ELG1-dependent DNA repair in human embryonic kidney (HEK293T) cells expressing luciferase-tagged ELG1; also: nearly all actives have a fitted effect of over 55% in size
Conditions: HEK293T ELG1-luciferase reporter, luminescence, 16 h, DNA damage induced by 5-fluorouridine; activity change, negative = inhibition: at 46.1 µM (top of the series)
In short: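 In this reporter screen, reduction of luminescence relative to DMSO vehicle indicated activity. Compounds and 5-fluorouridine were added together to 2,000 cells per well, incubated for 16 hr at 37 °C, then developed with ONE-Glo.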
% is scaled to controls: 0 for no effect and ±100 for the full control effect; potency is read from the fitted curve at half-maximal effect.

Row | Compound | Potency | activity change, negative = inhibition
1 | O=C(Nc1ccc(S(=O)(=O)N2CCOCC2)cc1)c1cc(-c2cc(Cl)ccc2O)n[nH]1 | active: 23.1 µM | –
2 | COc1ccc(NC(=O)c2cc(-c3cc(OC)c(OC)c(OC)c3)nc3ccccc23)c(OC)c1 | inconclusive: 14.6 µM [inhibitor, partial curve] | –
3 | O=C(Nc1ccc(N2CCCCC2)c(Cl)c1)c1ncn[nH]1 | inconclusive: 10.3 µM [activator, partial curve] | –
4 | Cc1cccc(Nc2nc(N)c([N+](=O)[O-])c(N3CC(C)CC(C)C3)n2)c1 (stereo unspecified) | – | inactive: 5.26%
5 | Cc1ccc(-n2c(C)cc(/C=N/Nc3ccc([N+](=O)[O-])cn3)c2C)cc1 | inconclusive: 14.6 µM [activator, partial curve] | –
6 | CC12CCC(C(=O)N(CSC(=S)N/N=C\c3ccccc3O)C1=O)C2(C)C (stereo unspecified) | inconclusive: 9.2 µM [inhibitor, partial curve] | –
7 | NC(=S)Nc1cc(Cl)ccc1Cl | – | inactive: -7.57%
8 | COc1ccccc1C(=O)N1CCN(c2nc3cc(C)c(C)cc3cc2C#N)CC1 | active: 23.1 µM | –
9 | CC1CCC(NC(=O)c2ccc(NC(=O)CC3SC(N4CCCC4)=NC3=O)cc2)CC1 (stereo unspecified) | inconclusive: 7.3 µM [activator, partial curve] | –
10 | O=C(CCc1ccccc1)n1nc(-c2ccco2)nc1SCc1ccccc1 | inconclusive: 18.4 µM [activator, partial curve] | –
11 | O=C(Nc1nc2ccccc2s1)NC1CCCCC1 | inconclusive: 2.06 µM [activator, full curve] | –
12 | COc1ccc2oc(=O)c(C(=O)N3CCN(c4ccccc4C)CC3)cc2c1 | inconclusive: 20.6 µM [activator, partial curve] | –
13 | O=C1c2ccccc2N[C@@H]2C=CC[C@@H]2N1O | – | inactive: 1.23%
14 | Cc1cc(NC(=O)CSCc2nc(-c3cccc(F)c3)oc2C)no1 | – | inactive: -24.5%
15 | COc1cccc(/C=N/NC(=O)c2[nH]c(C)c(C(=O)N/N=C/c3cccc(OC)c3O)c2C)c1O | inconclusive: 4.61 µM [inhibitor, single point] | –
16 | O=C(Nc1cccnc1)c1cc(-c2ccco2)on1 | – | inactive: -0.577%
17 | COc1ccc(OCCCC(=O)Nc2cccc(C(C)=O)c2)cc1 | active: 18.4 µM | –
18 | COc1ccc(NS(=O)(=O)c2csc(C(=O)Nc3ccccc3)c2)cc1 | inconclusive: 13 µM [inhibitor, partial curve, poor fit] | –
19 | O=S(=O)(NC1CCN(Cc2ccccc2)CC1)c1cccc2cccnc12 | – | inactive: -3.47%
20 | CC(Sc1nnc(-c2cccnc2)n1N)C(=O)NCCC1=CCCCC1 (stereo unspecified) | – | inactive: 5.61%
21 | O=C(CN1CCCCC1)N1CCc2ccccc21 | – | inactive: 17.3%
22 | NC(=O)C1=C[C@@H](c2coc3ccccc3c2=O)C[C@@H](OCCCCO)O1 | inconclusive: 0.0065 µM [inhibitor, full curve] | –
23 | CCOC(=O)c1c(C)oc2c1c1c(c3ccccc32)OCN(CCCC(=O)O)C1 | inconclusive: 20.6 µM [activator, partial curve] | –
24 | COC(=O)c1c(NC(=O)C(Cl)Cl)sc2c1C(C(=O)OC)CC2 (stereo unspecified) | inconclusive: 16.4 µM [inhibitor, partial curve, poor fit] | –

2 entries from above in another layout:
Row	Compound	Potency	activity change, negative = inhibition
14	Cc1cc(NC(=O)CSCc2nc(-c3cccc(F)c3)oc2C)no1	–	inactive: -24.5%
21	O=C(CN1CCCCC1)N1CCc2ccccc21	–	inactive: 17.3%

(continued)

Row | Compound | Potency | activity change, negative = inhibition
25 | CCCN(CCC)S(=O)(=O)c1ccc(Cl)c([N+](=O)[O-])c1 | inconclusive: 29.1 µM [inhibitor, single point] | –
26 | O=S(=O)(Nc1nc2ccccc2nc1NCc1ccco1)c1ccc(Cl)cc1 | – | inactive: 0.129%
27 | O=C(O)C1CCCCC1C(=O)N1CC=C(c2ccccc2)CC1 (stereo unspecified) | inconclusive: 29.1 µM [activator, single point] | –
28 | Cc1ccccc1C(=O)Nc1cccc(NC(=S)NC(=O)c2cccs2)c1 | inconclusive: 29.1 µM [inhibitor, single point] | –
29 | CC(C)(C)c1cc(OS(C)(=O)=O)ccc1O | – | inactive: -4.87%
30 | CCCc1cc(C(=O)NC2CCCC2)no1 | inconclusive: 20.6 µM [activator, partial curve] | –
31 | Nc1cc(Cl)ccc1C(=O)OCC(=O)NC1CCCCCCC1 | inconclusive: 1.16 µM [activator, single point] | –
32 | CCOc1ccc(-c2c(C(=O)N/N=C/c3ccccc3)nnn2-c2nonc2N)cc1 | – | inactive: 5.95%
33 | COCCCNC(=S)Nc1ccc(C)cc1[N+](=O)[O-] | inconclusive: 16.4 µM [activator, single point] | –
34 | COc1ccc(-c2c(C)cc3oc(=O)cc(-c4ccccc4)c3c2C)cc1C=O | active: 25.9 µM | –
35 | O=C(CN1CCN(c2ncccn2)CC1)Nc1ccccc1-n1cccc1 | inconclusive: 29.1 µM [inhibitor, single point] | –
36 | Cc1nc(SCCC(=O)O)c2cc(-c3ccccc3)sc2n1 | inconclusive: 14.6 µM [activator, partial curve] | –
37 | O=C(NCC(c1ccco1)N1CCc2ccccc2C1)c1ccc(Br)cc1 (stereo unspecified) | inconclusive: 4.61 µM [inhibitor, partial curve, poor fit] | –
38 | Cc1nn(-c2ccccc2)c(C)c1/C=N/Nc1nc2ccccc2[nH]1 | inconclusive: 0.82 µM [activator, full curve] | –
39 | O=C1c2cccc3c(N4CCCCC4)ccc(c23)C(=O)N1c1ccccc1O | inconclusive: 13 µM [inhibitor, partial curve] | –
40 | Cc1cccc(Sc2nc(-c3ccccc3)ncc2C(=O)O)c1 | inconclusive: 23.1 µM [inhibitor, partial curve, poor fit] | –
41 | Cc1nc(-c2cccc(S(=O)(=O)N3CC(C)OC(C)C3)c2)cs1 (stereo unspecified) | inconclusive: 35.5 µM [inhibitor, single point] | –
42 | CCN(CC(=O)NC(=O)NCc1ccccc1)Cc1nc2ccccc2c(=O)[nH]1 | inconclusive: 11.6 µM [inhibitor, partial curve] | –
43 | COc1cc(C2C(C#N)=C(N)OC3=C2C(=O)CC(C)(C)C3)cc([N+](=O)[O-])c1O (stereo unspecified) | – | inactive: -17.8%
44 | CSc1ccccc1C(=O)Nc1ccc(C)c(C)c1 | inconclusive: 20.6 µM [activator, partial curve] | –
45 | Cc1nc2cc(F)ccc2n1C1CCN(C(=O)c2ccc(F)cc2F)CC1 | active: 9.2 µM | –
46 | CCCONC(=O)Nc1ccccc1[N+](=O)[O-] | inconclusive: 16.4 µM [activator, partial curve, poor fit] | –
47 | Cc1ccc(OCC(=O)NS(=O)(=O)c2ccc(Cl)cc2)cc1 | – | inactive: -6.84%
48 | CC1=C(C(=O)NCc2ccccc2)C(c2cccs2)NC(=S)N1 (stereo unspecified) | – | inactive: -7.48%

Retrieved one by one from the list above:
Row | Compound | Potency | activity change, negative = inhibition
13 | O=C1c2ccccc2N[C@@H]2C=CC[C@@H]2N1O | – | inactive: 1.23%
25 | CCCN(CCC)S(=O)(=O)c1ccc(Cl)c([N+](=O)[O-])c1 | inconclusive: 29.1 µM [inhibitor, single point] | –

Additional structures

Row | Compound | Potency | activity change, negative = inhibition
49 | CCC(C)N1C(=O)S/C(=C/c2ccc(N3CCOCC3)cc2C)C1=O (stereo unspecified) | inconclusive: 2.31 µM [activator, full curve] | –
50 | COc1ccc2sc(N(CCN(C)C)C(=O)c3ccc4ccccc4c3)nc2c1 | – | inactive: 3.29%
51 | Cc1c(OCC(=O)NCc2ccccn2)ccc2c(-c3ccccc3)cc(=O)oc12 | – | inactive: -0.528%
52 | CC(C)Sc1nc(SCC(=O)O)c2c3c(sc2n1)COC(C)(C)C3 | inconclusive: 20.6 µM [activator, single point] | –
53 | CCCc1cc2c(=O)c(-c3ccc4c(c3)OCCO4)coc2cc1OC(=O)c1ccco1 | inconclusive: 2.59 µM [activator, full curve] | –
54 | Cc1cc(C(=O)N[C@H](c2ccccc2)[C@@]2(C)C[C@@H]2[C@@H](C)C(=O)Nc2ccc3ccccc3c2)n(C)n1 | inconclusive: 29.1 µM [inhibitor, single point] | –
55 | CCOc1ccc2c(c1)c1nnc(SCC(=O)N3CCCCC3C)nc1n2C (stereo unspecified) | inconclusive: 29.1 µM [inhibitor, single point] | –
56 | O=C(COc1ccccc1)Nc1nnc(S(=O)(=O)N2CCCCCC2)s1 | – | inactive: -2.48%
57 | O=C(N/N=C/c1ccc[nH]1)c1c[nH]c2ccccc12 | inconclusive: 14.6 µM [activator, partial curve] | –
58 | CN(C)c1ccc(/C=C2\N=C(C(C)(C)C)OC2=O)cc1 | – | inactive: 6.41%
59 | CCC(C)SCC(=O)Nc1ccc(S(=O)(=O)N2CCOCC2)cc1OC (stereo unspecified) | inconclusive: 1.3 µM [activator, partial curve, poor fit] | –
60 | O=C(NCCNC(=O)c1cnccn1)c1cccc(Cl)c1 | inconclusive: 13 µM [inhibitor, partial curve, poor fit] | –
61 | O=C(CCC(=O)OCc1ccc(C(=O)Oc2ccc(Cl)cc2)cc1)Nc1ccccc1 | inconclusive: 18.4 µM [activator, single point] | –
62 | CC/C(C)=N/Oc1nc(C)cc(C)n1 | – | inactive: 0%
63 | CCOc1cccc(NC(=O)Cc2cccs2)c1 | inconclusive: 35.5 µM [activator, partial curve, poor fit] | –
64 | O=C(COc1ccc(S(=O)(=O)NC2CCCCC2)cc1)Nc1ccc2c(c1)OCCO2 | inconclusive: 20.6 µM [inhibitor, partial curve] | –
65 | COc1ccc2cc(C(=O)N/N=C/c3cc(OC)c(OC)c(OC)c3)[nH]c2c1 | inconclusive: 29.1 µM [inhibitor, single point] | –
66 | CC(=O)OC(C)[C@H]1CC[C@H]2[C@@H]3CC[C@H]4C[C@@H](OC(C)=O)CC[C@]4(C)C3=CC[C@]12C (stereo partly specified) | – | inactive: 4.48%
67 | COc1ccc(OC)c(NC(=O)Cn2cc(C(=O)c3ccco3)c3ccccc32)c1 | inconclusive: 20.6 µM [inhibitor, single point] | –
68 | COCCNC(=O)C(c1ccc(F)cc1)N(C(=O)CCC(=O)Nc1ccccn1)C1CCCCC1 (stereo unspecified) | – | inactive: -0.318%
69 | C/C(=N\NC(=O)c1cccnc1)c1cc(C)oc1C | – | inactive: 7.23%
70 | CCc1ccc2oc(-c3ccc(OC)cc3)cc(=Nc3c(C)n(C)n(-c4ccccc4)c3=O)c2c1 | inconclusive: 3.26 µM [activator, partial curve] | –
71 | Cc1sc(NC(=S)NC(=O)c2ccc(C(C)(C)C)cc2)c(C#N)c1C | inconclusive: 20.6 µM [activator, single point] | –
